In PMC2670979:
These are yes or no findings as the source states them, for the method shown. In cells and extracts the contact can be indirect. Binding calls can cover weak binding; strength is not graded here.

Chains of the proteins cited; added tags and fusions are not shown. Lines headed by an entry give the natural chain unless they say otherwise; changes in a name come on top.
UniProt Q8IXI2: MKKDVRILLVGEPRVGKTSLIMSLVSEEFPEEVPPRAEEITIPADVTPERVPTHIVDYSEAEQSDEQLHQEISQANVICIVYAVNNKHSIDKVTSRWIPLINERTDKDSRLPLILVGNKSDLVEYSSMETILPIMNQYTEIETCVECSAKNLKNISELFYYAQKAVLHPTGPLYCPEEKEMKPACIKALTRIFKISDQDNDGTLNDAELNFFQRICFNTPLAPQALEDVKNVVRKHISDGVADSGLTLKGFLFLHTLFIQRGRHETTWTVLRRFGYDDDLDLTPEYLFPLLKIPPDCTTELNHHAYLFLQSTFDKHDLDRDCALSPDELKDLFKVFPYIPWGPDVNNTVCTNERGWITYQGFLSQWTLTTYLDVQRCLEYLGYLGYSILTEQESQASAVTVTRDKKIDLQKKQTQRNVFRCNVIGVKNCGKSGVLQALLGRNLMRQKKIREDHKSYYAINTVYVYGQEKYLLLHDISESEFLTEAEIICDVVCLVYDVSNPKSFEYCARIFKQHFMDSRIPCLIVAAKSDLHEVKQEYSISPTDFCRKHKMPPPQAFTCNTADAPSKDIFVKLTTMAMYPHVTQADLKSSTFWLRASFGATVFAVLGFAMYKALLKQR
UniProt O60282: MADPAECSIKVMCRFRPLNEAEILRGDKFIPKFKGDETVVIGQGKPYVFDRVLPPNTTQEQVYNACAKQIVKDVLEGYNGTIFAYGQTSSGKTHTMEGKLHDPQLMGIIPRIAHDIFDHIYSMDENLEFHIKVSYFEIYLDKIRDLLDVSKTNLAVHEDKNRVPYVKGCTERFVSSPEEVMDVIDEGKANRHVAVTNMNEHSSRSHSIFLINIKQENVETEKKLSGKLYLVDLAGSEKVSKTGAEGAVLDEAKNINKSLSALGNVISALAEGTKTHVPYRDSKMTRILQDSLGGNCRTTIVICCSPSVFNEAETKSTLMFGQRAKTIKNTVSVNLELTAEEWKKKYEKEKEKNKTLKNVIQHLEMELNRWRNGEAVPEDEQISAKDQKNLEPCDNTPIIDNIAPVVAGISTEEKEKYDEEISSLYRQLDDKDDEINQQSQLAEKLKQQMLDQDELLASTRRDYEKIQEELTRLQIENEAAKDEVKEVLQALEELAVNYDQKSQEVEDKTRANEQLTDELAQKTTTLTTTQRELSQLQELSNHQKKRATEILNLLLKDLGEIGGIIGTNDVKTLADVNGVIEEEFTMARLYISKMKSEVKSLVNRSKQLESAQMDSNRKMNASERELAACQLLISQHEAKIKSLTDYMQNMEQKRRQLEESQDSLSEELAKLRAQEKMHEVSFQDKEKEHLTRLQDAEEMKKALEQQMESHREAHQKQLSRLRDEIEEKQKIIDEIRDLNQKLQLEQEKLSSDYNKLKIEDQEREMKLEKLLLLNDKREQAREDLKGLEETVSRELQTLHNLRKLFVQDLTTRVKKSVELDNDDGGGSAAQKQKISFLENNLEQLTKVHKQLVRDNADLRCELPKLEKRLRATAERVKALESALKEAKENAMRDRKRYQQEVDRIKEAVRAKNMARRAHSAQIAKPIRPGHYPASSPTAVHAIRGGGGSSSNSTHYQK
UniProt P33176: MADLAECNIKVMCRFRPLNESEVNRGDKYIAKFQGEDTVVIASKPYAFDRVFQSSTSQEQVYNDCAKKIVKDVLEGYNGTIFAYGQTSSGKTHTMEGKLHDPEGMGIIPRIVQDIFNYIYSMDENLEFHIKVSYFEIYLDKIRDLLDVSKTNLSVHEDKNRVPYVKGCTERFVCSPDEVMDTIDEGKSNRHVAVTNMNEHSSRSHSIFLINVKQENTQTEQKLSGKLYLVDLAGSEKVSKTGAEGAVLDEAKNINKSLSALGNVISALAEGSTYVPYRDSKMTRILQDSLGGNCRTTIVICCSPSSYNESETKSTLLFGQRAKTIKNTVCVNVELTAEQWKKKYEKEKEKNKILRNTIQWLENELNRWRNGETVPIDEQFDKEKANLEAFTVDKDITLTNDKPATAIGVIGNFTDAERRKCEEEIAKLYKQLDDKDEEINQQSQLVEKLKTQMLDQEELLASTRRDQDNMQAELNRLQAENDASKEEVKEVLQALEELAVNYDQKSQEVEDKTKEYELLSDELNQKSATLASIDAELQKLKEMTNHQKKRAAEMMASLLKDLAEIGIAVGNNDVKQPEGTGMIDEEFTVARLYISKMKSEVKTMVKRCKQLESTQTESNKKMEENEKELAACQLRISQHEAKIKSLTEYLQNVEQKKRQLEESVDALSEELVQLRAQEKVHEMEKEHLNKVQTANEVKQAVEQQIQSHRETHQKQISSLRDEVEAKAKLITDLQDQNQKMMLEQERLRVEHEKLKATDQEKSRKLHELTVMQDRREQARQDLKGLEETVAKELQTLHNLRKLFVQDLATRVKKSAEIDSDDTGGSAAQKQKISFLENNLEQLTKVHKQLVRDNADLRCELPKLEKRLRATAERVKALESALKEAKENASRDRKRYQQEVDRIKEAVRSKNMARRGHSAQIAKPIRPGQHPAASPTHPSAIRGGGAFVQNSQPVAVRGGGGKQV
UniProt Q12840: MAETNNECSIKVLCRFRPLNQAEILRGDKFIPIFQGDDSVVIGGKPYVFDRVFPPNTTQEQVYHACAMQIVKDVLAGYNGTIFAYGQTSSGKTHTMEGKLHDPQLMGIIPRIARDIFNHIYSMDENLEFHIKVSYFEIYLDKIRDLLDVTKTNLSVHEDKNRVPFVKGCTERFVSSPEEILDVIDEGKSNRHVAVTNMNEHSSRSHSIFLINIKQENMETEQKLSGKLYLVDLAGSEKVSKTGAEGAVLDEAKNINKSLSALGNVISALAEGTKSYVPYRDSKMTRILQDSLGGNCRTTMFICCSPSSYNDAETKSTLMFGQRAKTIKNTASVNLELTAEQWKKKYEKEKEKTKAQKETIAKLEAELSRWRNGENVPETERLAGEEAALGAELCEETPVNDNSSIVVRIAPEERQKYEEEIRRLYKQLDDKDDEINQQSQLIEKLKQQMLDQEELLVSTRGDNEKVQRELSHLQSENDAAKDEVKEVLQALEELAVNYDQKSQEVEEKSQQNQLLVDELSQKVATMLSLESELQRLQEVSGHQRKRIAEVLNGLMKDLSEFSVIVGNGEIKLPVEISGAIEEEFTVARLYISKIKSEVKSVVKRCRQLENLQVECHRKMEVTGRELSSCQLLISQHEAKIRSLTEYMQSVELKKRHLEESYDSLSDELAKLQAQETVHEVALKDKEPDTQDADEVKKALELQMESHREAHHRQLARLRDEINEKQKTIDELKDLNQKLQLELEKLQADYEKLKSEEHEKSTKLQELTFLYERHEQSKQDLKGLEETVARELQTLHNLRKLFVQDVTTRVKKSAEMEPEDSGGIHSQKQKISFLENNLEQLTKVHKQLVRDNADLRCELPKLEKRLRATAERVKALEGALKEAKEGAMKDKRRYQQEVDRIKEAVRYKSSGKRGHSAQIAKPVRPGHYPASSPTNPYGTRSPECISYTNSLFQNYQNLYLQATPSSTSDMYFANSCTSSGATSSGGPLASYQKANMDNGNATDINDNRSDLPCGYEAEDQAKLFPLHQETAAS

Key:
GST-Miro1 WT [1] = target: GST-Miro1 WT (UniProt Q8IXI2); assay: pull-down; as a1 but with KIF5C, TRAK2 (1-700) and GST-Miro1 (WT or ΔEF) all three present together; with and without Ca2+; only the target purified
GST-Miro1 ΔEF [2] = target: GST-Miro1 ΔEF (UniProt Q8IXI2); assay: as above
GST-Miro1 WT [3] = target: GST-Miro1 WT (UniProt Q8IXI2); assay: pull-down; 20 ug GST fusion protein (or GST alone) on glutathione sepharose beads; 2.5 ul of one 35S-labelled in vitro translated protein; 1-2 hr at 4°C; 50 mM HEPES, 125 mM NaCl, 5 mM H-EDTA; no other proteins in the system; no added Ca2+, repeated with 2 mM Ca2+; phosphor storage screen; only the target purified
GST-Miro1 ΔEF [4] = target: GST-Miro1 ΔEF (UniProt Q8IXI2); assay: as above

Substance	binding (GST-Miro1 WT [1])	binding (GST-Miro1 ΔEF [2])	binding (GST-Miro1 WT [3])	binding (GST-Miro1 ΔEF [4])
KIF5C (from UniProt O60282 1-957)	binds	binds	binds	binds
KIF5B (from UniProt P33176 1-963)	–	–	binds	–
KIF5A (from UniProt Q12840 1-1032)	–	–	binds	–
